From publication PMC6915327
Changes are numbered by the printed parent chain. Numbers in names are those of the source. These are yes or no findings as the source states them, for the method shown. Binding seen in cells or lysates may run through a third protein. Some binding calls cover weakened binding; strength is not graded here. Sequences can lack the tags named with a protein.

By UniProt entry, the sequences of proteins in these tests, tags left out.
UniProt Q8N122: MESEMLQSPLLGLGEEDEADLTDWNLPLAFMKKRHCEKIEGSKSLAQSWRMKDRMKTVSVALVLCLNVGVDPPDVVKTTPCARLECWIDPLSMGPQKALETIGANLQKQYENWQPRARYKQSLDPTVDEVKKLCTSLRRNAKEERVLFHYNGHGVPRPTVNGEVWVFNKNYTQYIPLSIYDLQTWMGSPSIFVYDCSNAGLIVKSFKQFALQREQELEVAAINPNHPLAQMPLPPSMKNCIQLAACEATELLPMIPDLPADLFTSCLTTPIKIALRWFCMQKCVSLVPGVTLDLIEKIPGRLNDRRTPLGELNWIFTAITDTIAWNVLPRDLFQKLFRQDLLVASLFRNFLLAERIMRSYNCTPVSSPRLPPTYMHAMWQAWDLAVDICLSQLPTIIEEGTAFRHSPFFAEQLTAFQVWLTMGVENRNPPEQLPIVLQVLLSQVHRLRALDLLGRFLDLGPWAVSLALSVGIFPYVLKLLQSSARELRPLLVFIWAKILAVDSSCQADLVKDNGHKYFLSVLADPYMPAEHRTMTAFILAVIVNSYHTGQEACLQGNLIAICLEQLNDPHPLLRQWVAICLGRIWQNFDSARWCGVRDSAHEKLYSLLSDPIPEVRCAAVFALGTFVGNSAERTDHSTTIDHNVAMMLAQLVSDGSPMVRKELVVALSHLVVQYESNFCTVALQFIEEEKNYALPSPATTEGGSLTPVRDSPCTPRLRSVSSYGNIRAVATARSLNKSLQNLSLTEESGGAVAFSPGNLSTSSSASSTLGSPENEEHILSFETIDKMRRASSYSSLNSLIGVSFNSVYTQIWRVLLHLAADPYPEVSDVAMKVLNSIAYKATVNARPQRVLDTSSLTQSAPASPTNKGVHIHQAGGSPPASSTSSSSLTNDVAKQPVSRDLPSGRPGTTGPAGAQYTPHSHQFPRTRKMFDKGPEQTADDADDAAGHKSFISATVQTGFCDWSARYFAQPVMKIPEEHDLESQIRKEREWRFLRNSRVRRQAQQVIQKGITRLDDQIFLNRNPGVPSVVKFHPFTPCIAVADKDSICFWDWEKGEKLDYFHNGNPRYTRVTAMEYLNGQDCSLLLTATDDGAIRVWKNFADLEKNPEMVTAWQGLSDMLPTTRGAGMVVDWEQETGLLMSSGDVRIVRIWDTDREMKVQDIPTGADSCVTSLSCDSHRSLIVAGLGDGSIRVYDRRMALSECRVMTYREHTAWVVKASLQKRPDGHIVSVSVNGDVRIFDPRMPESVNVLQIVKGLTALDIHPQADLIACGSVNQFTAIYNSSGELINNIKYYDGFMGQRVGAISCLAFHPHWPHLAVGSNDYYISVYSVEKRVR
UniProt Q16531: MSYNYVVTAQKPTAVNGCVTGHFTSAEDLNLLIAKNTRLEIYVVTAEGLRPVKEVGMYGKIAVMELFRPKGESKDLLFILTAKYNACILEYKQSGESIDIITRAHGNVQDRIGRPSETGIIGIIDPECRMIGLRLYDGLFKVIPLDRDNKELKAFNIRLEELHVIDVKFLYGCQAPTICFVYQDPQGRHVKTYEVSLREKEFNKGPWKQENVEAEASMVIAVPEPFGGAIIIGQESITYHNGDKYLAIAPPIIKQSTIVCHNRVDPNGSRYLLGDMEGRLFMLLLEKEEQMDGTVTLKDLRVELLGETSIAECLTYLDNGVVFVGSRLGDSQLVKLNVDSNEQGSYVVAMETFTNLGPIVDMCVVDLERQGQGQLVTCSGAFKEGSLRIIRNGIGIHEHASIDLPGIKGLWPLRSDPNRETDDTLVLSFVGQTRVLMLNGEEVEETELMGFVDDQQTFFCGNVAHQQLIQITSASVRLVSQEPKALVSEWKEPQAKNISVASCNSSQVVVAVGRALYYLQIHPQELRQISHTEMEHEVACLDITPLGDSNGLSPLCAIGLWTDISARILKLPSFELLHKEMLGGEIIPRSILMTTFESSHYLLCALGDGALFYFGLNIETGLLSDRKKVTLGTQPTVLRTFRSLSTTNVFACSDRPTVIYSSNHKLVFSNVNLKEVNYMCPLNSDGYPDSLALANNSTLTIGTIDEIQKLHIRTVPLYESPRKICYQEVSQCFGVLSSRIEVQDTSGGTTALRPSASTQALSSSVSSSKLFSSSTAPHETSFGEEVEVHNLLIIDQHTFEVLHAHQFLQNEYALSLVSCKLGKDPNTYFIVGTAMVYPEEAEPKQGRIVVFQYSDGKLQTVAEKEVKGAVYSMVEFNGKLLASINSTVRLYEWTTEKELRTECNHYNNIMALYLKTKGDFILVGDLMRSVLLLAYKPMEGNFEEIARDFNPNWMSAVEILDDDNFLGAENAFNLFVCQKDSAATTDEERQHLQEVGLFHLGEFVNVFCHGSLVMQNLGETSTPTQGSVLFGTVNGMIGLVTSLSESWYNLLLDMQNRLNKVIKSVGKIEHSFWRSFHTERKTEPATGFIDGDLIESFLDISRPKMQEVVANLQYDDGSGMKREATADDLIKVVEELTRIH
UniProt Q13620: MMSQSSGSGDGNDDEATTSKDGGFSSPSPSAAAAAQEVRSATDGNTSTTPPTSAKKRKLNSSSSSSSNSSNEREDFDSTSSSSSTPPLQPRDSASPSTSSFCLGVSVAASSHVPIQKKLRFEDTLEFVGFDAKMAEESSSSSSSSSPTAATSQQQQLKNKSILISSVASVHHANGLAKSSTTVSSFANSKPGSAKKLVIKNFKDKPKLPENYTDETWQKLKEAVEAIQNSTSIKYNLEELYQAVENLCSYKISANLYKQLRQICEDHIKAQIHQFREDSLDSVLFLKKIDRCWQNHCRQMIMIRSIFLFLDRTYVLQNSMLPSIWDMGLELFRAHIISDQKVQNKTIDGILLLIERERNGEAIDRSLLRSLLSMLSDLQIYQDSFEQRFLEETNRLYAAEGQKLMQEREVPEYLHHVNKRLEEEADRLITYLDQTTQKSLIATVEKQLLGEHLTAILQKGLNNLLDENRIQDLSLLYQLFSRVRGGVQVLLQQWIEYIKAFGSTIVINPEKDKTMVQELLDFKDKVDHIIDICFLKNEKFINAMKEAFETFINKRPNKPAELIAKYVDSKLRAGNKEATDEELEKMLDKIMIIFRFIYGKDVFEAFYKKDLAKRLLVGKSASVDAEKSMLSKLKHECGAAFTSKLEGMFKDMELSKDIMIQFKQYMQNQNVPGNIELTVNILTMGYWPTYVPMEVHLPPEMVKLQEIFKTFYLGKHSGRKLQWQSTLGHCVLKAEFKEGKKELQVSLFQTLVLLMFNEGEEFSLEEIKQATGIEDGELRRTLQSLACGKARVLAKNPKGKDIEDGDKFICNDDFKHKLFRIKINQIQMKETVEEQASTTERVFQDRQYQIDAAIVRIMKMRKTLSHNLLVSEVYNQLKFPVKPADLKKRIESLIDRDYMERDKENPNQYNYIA

B1: 2D HA-tagged 4E-BP2 (N99D/N102D) (protein, UniProt Q13542 1-120)
chain: MSSSAGSGHQPSQSRAIPTRTVAISDAAQLPHDYCTTPGGTLFSTTPGGTRIIYDRKFLLDRRNSPMAQTPPCHLPNIPGVTSPGTLIEDSKVEVNNLDNLDNHDRKHAVGDDAQFEMDI
B2: WT HA-tagged 4E-BP2 (protein, UniProt Q13542 1-120)
chain: B1 chain with D99N, D102N

Biological target: myc-tagged full-length Raptor (UniProt Q8N122)
Experiment: co-IP; anti-myc (9E10) immunoprecipitation on protein G agarose from HEK293H lysates co-transfected with myc-Raptor and HA-4E-BP2 WT or 2D; lysis buffer 50 mM HEPES pH 7.5, 1% CHAPS, 150 mM NaCl; 4°C; immunoblot

| Molecule | binding |
| --- | --- |
| DNA damage-binding protein 1 (DDB1) (from UniProt Q16531 1-1140) | binds |
| Cullin 4B (CUL4B) (from UniProt Q13620 1-913) | binds |
| B1 | binds |
| B2 | binds |
